Laboratory results as given in publication doi:10.1101/2024.03.18.585606.
Results are given in words; binding and its absence hold for the method and conditions named. In cells and extracts the contact can be indirect. Some binding calls cover weakened binding; strength is not graded here. Sequences can lack the tags named with a protein.

The chains behind the UniProt entries cited, without tags or fusion partners.
UniProt Q15648: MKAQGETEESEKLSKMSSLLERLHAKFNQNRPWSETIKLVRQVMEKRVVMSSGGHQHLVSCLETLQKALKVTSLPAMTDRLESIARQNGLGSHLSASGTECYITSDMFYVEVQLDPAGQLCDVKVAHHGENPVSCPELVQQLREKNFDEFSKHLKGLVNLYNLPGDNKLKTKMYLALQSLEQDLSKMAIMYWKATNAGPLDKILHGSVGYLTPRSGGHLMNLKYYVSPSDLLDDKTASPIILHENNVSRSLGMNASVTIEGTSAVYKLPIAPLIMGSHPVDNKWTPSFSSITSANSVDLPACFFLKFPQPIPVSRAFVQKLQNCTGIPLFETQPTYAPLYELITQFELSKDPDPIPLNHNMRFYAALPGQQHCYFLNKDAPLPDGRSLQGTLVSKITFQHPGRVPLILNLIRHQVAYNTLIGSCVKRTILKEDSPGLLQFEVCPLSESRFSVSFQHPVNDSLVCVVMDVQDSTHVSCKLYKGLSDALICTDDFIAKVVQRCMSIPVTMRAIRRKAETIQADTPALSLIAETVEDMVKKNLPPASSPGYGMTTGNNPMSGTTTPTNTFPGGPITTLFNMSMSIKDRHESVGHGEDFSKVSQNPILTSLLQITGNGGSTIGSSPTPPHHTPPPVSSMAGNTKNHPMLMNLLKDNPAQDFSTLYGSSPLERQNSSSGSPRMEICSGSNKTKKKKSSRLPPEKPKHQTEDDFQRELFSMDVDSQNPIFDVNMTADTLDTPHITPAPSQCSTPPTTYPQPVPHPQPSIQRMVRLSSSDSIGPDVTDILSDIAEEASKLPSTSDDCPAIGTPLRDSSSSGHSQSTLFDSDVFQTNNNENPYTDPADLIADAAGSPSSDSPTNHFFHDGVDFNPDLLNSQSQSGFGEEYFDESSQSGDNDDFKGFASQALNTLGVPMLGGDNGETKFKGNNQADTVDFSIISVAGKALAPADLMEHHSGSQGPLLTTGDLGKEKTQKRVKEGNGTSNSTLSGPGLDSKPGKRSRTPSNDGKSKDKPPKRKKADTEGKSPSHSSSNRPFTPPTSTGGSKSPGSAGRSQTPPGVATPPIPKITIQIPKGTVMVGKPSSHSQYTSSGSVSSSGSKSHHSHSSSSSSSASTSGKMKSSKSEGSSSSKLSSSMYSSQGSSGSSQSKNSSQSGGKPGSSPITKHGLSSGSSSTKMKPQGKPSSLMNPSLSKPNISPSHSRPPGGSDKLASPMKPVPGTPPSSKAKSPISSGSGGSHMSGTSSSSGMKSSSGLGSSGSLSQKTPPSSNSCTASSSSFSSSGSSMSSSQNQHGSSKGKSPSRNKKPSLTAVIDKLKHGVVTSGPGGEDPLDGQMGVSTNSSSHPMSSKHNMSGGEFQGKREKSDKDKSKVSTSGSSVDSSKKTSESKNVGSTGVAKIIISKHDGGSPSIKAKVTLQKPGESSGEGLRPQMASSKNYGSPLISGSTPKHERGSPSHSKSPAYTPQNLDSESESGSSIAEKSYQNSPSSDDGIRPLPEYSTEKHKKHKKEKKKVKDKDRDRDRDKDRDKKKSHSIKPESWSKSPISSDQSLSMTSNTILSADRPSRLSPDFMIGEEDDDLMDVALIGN
UniProt Q09472: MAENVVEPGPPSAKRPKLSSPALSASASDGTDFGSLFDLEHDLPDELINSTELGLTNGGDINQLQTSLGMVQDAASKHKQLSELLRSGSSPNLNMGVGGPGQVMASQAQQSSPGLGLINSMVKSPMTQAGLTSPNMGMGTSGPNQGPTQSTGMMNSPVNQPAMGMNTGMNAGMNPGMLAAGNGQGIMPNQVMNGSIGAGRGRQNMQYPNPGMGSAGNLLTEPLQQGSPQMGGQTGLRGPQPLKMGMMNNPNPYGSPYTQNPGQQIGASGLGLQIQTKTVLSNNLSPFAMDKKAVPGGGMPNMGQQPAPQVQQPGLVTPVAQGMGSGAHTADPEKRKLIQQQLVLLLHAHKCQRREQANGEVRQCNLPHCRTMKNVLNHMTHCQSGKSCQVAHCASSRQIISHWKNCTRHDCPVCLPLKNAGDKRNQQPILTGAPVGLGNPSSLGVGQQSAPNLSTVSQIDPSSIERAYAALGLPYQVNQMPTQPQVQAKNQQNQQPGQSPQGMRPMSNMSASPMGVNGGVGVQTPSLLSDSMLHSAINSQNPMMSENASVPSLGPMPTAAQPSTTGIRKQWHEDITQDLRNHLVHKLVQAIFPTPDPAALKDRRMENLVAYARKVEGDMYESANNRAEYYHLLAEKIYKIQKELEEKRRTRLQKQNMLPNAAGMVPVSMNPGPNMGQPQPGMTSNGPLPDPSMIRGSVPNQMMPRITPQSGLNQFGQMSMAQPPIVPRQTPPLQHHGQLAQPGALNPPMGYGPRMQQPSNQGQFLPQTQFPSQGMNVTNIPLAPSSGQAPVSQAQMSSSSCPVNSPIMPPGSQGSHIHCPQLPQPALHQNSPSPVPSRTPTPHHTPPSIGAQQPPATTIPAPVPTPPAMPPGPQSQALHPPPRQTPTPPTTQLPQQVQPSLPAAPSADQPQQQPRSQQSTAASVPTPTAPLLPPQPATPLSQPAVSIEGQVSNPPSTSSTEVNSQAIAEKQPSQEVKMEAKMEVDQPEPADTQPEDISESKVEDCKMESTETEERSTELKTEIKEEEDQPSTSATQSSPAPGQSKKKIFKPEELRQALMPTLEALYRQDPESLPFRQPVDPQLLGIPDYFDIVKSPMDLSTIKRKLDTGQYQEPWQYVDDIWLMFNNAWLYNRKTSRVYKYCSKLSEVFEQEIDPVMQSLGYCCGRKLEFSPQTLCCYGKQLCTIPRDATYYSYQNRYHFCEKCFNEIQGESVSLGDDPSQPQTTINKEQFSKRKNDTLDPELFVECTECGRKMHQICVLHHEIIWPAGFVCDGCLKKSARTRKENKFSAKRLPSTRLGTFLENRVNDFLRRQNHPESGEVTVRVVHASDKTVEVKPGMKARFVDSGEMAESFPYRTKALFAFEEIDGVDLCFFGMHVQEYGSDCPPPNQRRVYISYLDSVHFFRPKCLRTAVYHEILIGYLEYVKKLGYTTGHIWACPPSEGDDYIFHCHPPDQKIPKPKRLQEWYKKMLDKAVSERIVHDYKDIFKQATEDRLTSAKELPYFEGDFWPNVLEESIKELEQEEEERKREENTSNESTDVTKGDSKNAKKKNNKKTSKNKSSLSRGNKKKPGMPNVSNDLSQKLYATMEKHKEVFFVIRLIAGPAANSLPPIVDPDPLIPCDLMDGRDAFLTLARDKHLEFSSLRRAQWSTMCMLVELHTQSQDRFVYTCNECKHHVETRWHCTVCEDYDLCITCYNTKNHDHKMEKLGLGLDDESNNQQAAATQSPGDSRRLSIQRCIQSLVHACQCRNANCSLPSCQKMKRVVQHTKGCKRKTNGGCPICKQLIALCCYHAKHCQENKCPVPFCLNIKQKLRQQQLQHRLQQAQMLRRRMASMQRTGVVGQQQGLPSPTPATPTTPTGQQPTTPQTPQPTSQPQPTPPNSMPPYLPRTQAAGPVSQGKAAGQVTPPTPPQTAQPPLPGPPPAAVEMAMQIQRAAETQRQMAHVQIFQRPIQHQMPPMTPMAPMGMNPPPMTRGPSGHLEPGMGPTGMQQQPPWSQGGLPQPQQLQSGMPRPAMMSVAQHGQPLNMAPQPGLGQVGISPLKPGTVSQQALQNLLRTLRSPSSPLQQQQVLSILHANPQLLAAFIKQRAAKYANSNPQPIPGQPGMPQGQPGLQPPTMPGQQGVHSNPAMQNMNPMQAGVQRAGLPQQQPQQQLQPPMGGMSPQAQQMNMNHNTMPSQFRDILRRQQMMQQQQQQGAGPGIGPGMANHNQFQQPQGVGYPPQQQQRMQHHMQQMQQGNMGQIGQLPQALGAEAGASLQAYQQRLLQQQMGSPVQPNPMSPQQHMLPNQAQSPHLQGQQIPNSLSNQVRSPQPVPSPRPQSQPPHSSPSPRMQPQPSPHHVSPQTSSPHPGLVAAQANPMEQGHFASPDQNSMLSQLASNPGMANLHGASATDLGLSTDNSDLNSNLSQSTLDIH

B1: MED17 (protein, UniProt Q9NVC6 1-651)
chain: MSGVRAVRISIESACEKQVHEVGLDGTETYLPPLSMSQNLARLAQRIDFSQGSGSEEEEAAGTEGDAQEWPGAGSSADQDDEEGVVKFQPSLWPWDSVRNNLRSALTEMCVLYDVLSIVRDKKFMTLDPVSQDALPPKQNPQTLQLISKKKSLAGAAQILLKGAERLTKSVTENQENKLQRDFNSELLRLRQHWKLRKVGDKILGDLSYRSAGSLFPHHGTFEVIKNTDLDLDKKIPEDYCPLDVQIPSDLEGSAYIKVSIQKQAPDIGDLGTVNLFKRPLPKSKPGSPHWQTKLEAAQNVLLCKEIFAQLSREAVQIKSQVPHIVVKNQIISQPFPSLQLSISLCHSSNDKKSQKFATEKQCPEDHLYVLEHNLHLLIREFHKQTLSSIMMPHPASAPFGHKRMRLSGPQAFDKNEINSLQSSEGLLEKIIKQAKHIFLRSRAAATIDSLASRIEDPQIQAHWSNINDVYESSVKVLITSQGYEQICKSIQLQLNIGVEQIRVVHRDGRVITLSYQEQELQDFLLSQMSQHQVHAVQQLAKVMGWQVLSFSNHVGLGPIESIGNASAITVASPSGDYAISVRNGPESGSKIMVQFPRNQCKDLPKSDVLQDNKWSHLRGPFKEVQWNKMEGRNFVYKMELLMSALSPCLL

molecular target: T1, FLAG-tagged human MED10 (human) (UniProt Q9BTT4); experiment: co-IP
T1 sequence: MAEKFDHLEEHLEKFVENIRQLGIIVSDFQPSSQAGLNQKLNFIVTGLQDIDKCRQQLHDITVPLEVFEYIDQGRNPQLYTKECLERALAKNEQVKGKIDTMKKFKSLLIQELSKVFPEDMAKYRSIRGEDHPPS

Question: MED1 (from UniProt Q15648 1-1581) was tested. Which binding did it give?
Answer: Its binding is “binds”.

Question: How did the binding turn out when p300 (from UniProt Q09472 1-2414) was run?
Answer: Its binding is “no binding”.

Question: B1 was tested. Which binding did it give?
Answer: The binding was “binds”.
